Patent US9803244
These are yes or no findings as the source states them, for the method shown. Binding seen in cells or lysates may run through a third protein. Some entries that bind do so weakly or less than the wild type. Sequences can lack the tags named with a protein.

T1: HA-tagged CDH26 (cadherin-like 26), expressed from pCDH26-HA (UniProt Q8IXH8)
T1 sequence (N-glycosylated in HEK 293T cells (PNGase F shift; sites not given), looked up): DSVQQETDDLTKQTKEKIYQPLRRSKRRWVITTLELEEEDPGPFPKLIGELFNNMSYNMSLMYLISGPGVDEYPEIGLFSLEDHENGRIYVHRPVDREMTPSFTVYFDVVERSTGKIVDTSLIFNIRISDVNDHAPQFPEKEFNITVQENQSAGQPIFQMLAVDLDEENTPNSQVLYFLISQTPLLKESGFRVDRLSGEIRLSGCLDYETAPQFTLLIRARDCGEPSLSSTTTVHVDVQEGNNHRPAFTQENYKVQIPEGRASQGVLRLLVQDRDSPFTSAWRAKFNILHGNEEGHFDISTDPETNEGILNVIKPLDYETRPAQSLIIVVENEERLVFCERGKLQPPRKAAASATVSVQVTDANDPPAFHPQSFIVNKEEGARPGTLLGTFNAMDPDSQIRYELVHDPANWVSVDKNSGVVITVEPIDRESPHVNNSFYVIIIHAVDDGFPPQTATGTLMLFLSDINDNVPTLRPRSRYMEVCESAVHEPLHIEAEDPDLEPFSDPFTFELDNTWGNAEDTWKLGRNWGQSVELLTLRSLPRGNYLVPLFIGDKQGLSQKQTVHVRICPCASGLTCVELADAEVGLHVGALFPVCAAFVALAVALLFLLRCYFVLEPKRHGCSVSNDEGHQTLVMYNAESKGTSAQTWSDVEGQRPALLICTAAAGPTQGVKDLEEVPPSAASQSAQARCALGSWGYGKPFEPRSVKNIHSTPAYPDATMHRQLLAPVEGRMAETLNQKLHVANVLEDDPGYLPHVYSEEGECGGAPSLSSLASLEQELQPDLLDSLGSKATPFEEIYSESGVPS

T2: Myc-tagged CDH26 (cadherin-like 26), expressed from pCDH26-MYC (UniProt Q8IXH8)
T2 sequence (N-glycosylated in HEK 293T cells (sites not given; shown for HA-tagged CDH26), looked up): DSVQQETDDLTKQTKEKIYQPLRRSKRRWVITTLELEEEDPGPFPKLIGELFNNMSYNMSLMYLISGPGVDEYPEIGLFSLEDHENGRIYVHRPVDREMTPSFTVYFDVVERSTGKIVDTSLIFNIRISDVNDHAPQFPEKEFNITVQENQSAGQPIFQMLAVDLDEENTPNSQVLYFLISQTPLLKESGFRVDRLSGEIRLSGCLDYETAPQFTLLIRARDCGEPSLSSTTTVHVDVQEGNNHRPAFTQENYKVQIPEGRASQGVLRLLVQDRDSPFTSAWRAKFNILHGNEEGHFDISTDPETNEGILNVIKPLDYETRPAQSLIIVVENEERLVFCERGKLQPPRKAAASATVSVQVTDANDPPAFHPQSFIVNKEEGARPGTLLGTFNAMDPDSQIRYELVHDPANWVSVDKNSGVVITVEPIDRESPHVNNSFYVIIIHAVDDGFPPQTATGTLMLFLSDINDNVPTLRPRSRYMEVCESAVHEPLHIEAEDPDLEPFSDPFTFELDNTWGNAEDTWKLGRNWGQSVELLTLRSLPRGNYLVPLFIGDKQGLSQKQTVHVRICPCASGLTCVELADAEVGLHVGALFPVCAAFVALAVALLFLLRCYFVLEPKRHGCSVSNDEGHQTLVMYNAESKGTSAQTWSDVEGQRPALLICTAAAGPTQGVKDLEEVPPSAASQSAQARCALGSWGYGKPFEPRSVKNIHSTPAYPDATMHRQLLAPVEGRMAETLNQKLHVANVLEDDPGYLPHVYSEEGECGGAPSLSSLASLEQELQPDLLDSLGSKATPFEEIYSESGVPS


What was measured:
[1] = target: T1, HA-tagged CDH26 (cadherin-like 26), expressed from pCDH26-HA; experiment: co-immunoprecipitation (anti-HA IP, anti-myc western blot) from lysates of co-transfected HEK 293T cells
[2] = target: T2, Myc-tagged CDH26 (cadherin-like 26), expressed from pCDH26-MYC; experiment: reciprocal co-immunoprecipitation (anti-myc IP, anti-HA western blot) from lysates of co-transfected HEK 293T cells

| binding [1] | binding [2] | Binder |
| --- | --- | --- |
| binds |  | Myc-tagged CDH26 (cadherin-like 26), expressed from pCDH26-MYC (protein, UniProt Q8IXH8 28-832, looked up, not shown: small tags and cut ends, N-glycosylated in HEK 293T cells (sites not given; shown for HA-tagged CDH26)) DSVQQETDDLTKQTKEKIYQPLRRSKRRWVITTLELEEEDPGPFPKLIGELFNNMSYNMSLMYLISGPGVDEYPEIGLFSLEDHENGRIYVHRPVDREMTPSFTVYFDVVERSTGKIVDTSLIFNIRISDVNDHAPQFPEKEFNITVQENQSAGQPIFQMLAVDLDEENTPNSQVLYFLISQTPLLKESGFRVDRLSGEIRLSGCLDYETAPQFTLLIRARDCGEPSLSSTTTVHVDVQEGNNHRPAFTQENYKVQIPEGRASQGVLRLLVQDRDSPFTSAWRAKFNILHGNEEGHFDISTDPETNEGILNVIKPLDYETRPAQSLIIVVENEERLVFCERGKLQPPRKAAASATVSVQVTDANDPPAFHPQSFIVNKEEGARPGTLLGTFNAMDPDSQIRYELVHDPANWVSVDKNSGVVITVEPIDRESPHVNNSFYVIIIHAVDDGFPPQTATGTLMLFLSDINDNVPTLRPRSRYMEVCESAVHEPLHIEAEDPDLEPFSDPFTFELDNTWGNAEDTWKLGRNWGQSVELLTLRSLPRGNYLVPLFIGDKQGLSQKQTVHVRICPCASGLTCVELADAEVGLHVGALFPVCAAFVALAVALLFLLRCYFVLEPKRHGCSVSNDEGHQTLVMYNAESKGTSAQTWSDVEGQRPALLICTAAAGPTQGVKDLEEVPPSAASQSAQARCALGSWGYGKPFEPRSVKNIHSTPAYPDATMHRQLLAPVEGRMAETLNQKLHVANVLEDDPGYLPHVYSEEGECGGAPSLSSLASLEQELQPDLLDSLGSKATPFEEIYSESGVPS |
|  | binds | HA-tagged CDH26 (cadherin-like 26), expressed from pCDH26-HA (protein, UniProt Q8IXH8 28-832, looked up, not shown: small tags and cut ends, N-glycosylated in HEK 293T cells (PNGase F shift; sites not given)) DSVQQETDDLTKQTKEKIYQPLRRSKRRWVITTLELEEEDPGPFPKLIGELFNNMSYNMSLMYLISGPGVDEYPEIGLFSLEDHENGRIYVHRPVDREMTPSFTVYFDVVERSTGKIVDTSLIFNIRISDVNDHAPQFPEKEFNITVQENQSAGQPIFQMLAVDLDEENTPNSQVLYFLISQTPLLKESGFRVDRLSGEIRLSGCLDYETAPQFTLLIRARDCGEPSLSSTTTVHVDVQEGNNHRPAFTQENYKVQIPEGRASQGVLRLLVQDRDSPFTSAWRAKFNILHGNEEGHFDISTDPETNEGILNVIKPLDYETRPAQSLIIVVENEERLVFCERGKLQPPRKAAASATVSVQVTDANDPPAFHPQSFIVNKEEGARPGTLLGTFNAMDPDSQIRYELVHDPANWVSVDKNSGVVITVEPIDRESPHVNNSFYVIIIHAVDDGFPPQTATGTLMLFLSDINDNVPTLRPRSRYMEVCESAVHEPLHIEAEDPDLEPFSDPFTFELDNTWGNAEDTWKLGRNWGQSVELLTLRSLPRGNYLVPLFIGDKQGLSQKQTVHVRICPCASGLTCVELADAEVGLHVGALFPVCAAFVALAVALLFLLRCYFVLEPKRHGCSVSNDEGHQTLVMYNAESKGTSAQTWSDVEGQRPALLICTAAAGPTQGVKDLEEVPPSAASQSAQARCALGSWGYGKPFEPRSVKNIHSTPAYPDATMHRQLLAPVEGRMAETLNQKLHVANVLEDDPGYLPHVYSEEGECGGAPSLSSLASLEQELQPDLLDSLGSKATPFEEIYSESGVPS |
